In PubChem BioAssay AID540276 (National Center for Advancing Translational Sciences (NCATS), 2011):
The whole screen tested about 300,000 compounds, of which about 5,400 (1.8%) were called active. This list was built around the results that the source calls inconclusive (neither active nor inactive); the mix of calls is not that of the screen. The call rests on the fitted dose curve; tested in HEK293 cells. Where the call is inconclusive, the potency comes from a doubtful curve fit.

test: qHTS for inhibitors of binding or entry into cells for Marburg Virus; conditions: Marburg virus pseudotyped entry inhibition, cell reporter; activity change, negative = inhibition: at 37.8 µM (top of the series) unless noted
On the % scale 0 is the no-effect control and ±100 the full control effect; potency means the concentration at half of the fitted maximal effect.

Q: Which “activity change, negative = inhibition” value does the source give for `COc1ccc(C)cc1NC(=O)NCCC1=CCCCC1` here?
A: inactive: -0.391%

Q: With `O=C(O)c1ccc2c(c1)C(=O)N(c1ccc(/C=C/C(=O)c3ccccc3)cc1)C2=O` as the molecule, how does the Potency read?
A: inconclusive: 31.6 µM [inhibitor, single point]

Q: Which Potency does the source give for `CCc1nnc(NC(=O)CSc2nnc(CSc3nc(C)cc(C)n3)n2C)s1` here?
A: inconclusive: 16.4 µM [inhibitor, partial curve, poor fit]

Q: For `Cc1nn(CC(=O)Nc2ccc3c(c2)nc2n3CCN(C3CCCCC3)C2)c(=O)c2ccccc12`, which Potency is on record?
A: inconclusive: 35.5 µM [inhibitor, single point]

Q: With `COCCN(C(=O)CSc1nnc(Nc2ccccc2F)s1)c1c(N)n(Cc2ccccc2)c(=O)[nH]c1=O` as the molecule, how does the Potency read?
A: inconclusive: 18.3 µM [activator, partial curve, poor fit]

Q: Which Potency does the source give for `O=C(Nc1nc(-c2ccccc2)cs1)NC1CCCCC1` here?
A: inconclusive: 32.6 µM [inhibitor, single point]

Q: For `O=C(Cc1c[nH]c2ccccc12)Nc1nccs1`, which “activity change, negative = inhibition” value is on record?
A: inactive: -7.45% [at 46.1 µM]

Q: For `NC1=NCC2c3ccccc3Cc3ccccc3N12` (configuration not stated), which Potency is on record?
A: inconclusive: 18.3 µM [inhibitor, single point]

Q: Which Potency does the source give for `Cc1cc(=O)oc2c(C(=O)/C=C/c3ccccc3)c(O)ccc12` here?
A: inconclusive: 0.501 µM [inhibitor, full curve, poor fit]

Q: With `CCOc1ccc(Nc2cc(=O)oc3ccccc23)cc1` as the molecule, how does the “activity change, negative = inhibition” value read?
A: inactive: -25.4%

Q: With `Cc1nn(-c2ccccc2)c(/N=C/c2ccccc2O)c1-c1ccccc1` as the molecule, how does the Potency read?
A: inconclusive: 11.2 µM [inhibitor, single point]

Q: For `CCCN(C(=O)CCc1nc(-c2ccc(C)cc2)no1)c1ccc(OCC)cc1`, which Potency is on record?
A: inconclusive: 1.26 µM [inhibitor, full curve, poor fit]

Q: With `Cc1ccc(N2C(=O)C(CC(=O)Nc3cccc(F)c3)N(CCc3ccccc3F)C2=O)cc1` (configuration not stated) as the molecule, how does the Potency read?
A: inconclusive: 35.5 µM [inhibitor, single point]

Q: With `Cc1ccc2c(c1)cc1c(=O)[nH]ncn12` as the molecule, how does the “activity change, negative = inhibition” value read?
A: inactive: 2.28%

Q: For `O=C1Nc2ccccc2/C1=C/c1ccccc1Cl`, which Potency is on record?
A: inconclusive: 6.31 µM [inhibitor, single point]

Q: With `CCOC1(/N=C(\C)NS(=O)(=O)c2ccc(Cl)cc2)C(C)=CC(=O)C=C1C` as the molecule, how does the Potency read?
A: inconclusive: 12.6 µM [activator, single point]

Q: With `Nc1nc(-c2ccccc2)c(N=Nc2ccc(Cl)cc2)s1` as the molecule, how does the Potency read?
A: inconclusive: 1.26 µM [inhibitor, full curve, poor fit]

Q: With `Cc1ccc(CNC(=O)c2ccc(Cn3c(SCc4ccc(F)cc4)nc4cccnc43)cc2)o1` as the molecule, how does the Potency read?
A: inconclusive: 6.31 µM [activator, single point]

Q: With `CCNC(=S)Nc1cc(OC)c(NC(=O)c2ccco2)cc1OC` as the molecule, how does the “activity change, negative = inhibition” value read?
A: inactive: 0.419%

Q: Which Potency does the source give for `Cn1cnnc1SCCn1c(N2CCCCC2)nc2c1c(=O)[nH]c(=O)n2C` here?
A: inconclusive: 0.103 µM [inhibitor, full curve, poor fit]

Q: For `Cc1cccc(-n2c(-c3ccco3)nc3ccccc3c2=O)n1`, which Potency is on record?
A: inconclusive: 35.5 µM [activator, single point]

Q: For `Cc1ccccc1/C=C1\CCCc2ccccc2C1=O`, which “activity change, negative = inhibition” value is on record?
A: inactive: -26.1%

Q: Which Potency does the source give for `COc1ccc(N2Cc3ccccc3C2=NC(=O)c2ccc(C)cc2)cc1OC` here?
A: inconclusive: 22.4 µM [inhibitor, partial curve, poor fit]

Q: Which “activity change, negative = inhibition” value does the source give for `COc1ccc(COC(=O)c2ccc(N3CCCC3=O)cc2)cc1F` here?
A: inactive: -9.57%

Q: With `Cc1ccc(-n2nc(CO)c(C(=O)NCCC(C)C)n2)cc1C` as the molecule, how does the “activity change, negative = inhibition” value read?
A: inactive: -4.99% [at 46.1 µM]

Q: With `Cc1ccc(C(=O)Cn2c(NCCO)nc3ccccc32)cc1` as the molecule, how does the Potency read?
A: inconclusive: 6.31 µM [inhibitor, single point]

Q: With `O=C(NCc1ccco1)c1cc2sccc2n1Cc1ccccc1` as the molecule, how does the “activity change, negative = inhibition” value read?
A: inactive: 11.1%

Q: For `CCN(CC)CCCNC(=O)c1cc(-c2ccc(Cl)c(Cl)c2)on1`, which Potency is on record?
A: inconclusive: 25.9 µM [inhibitor, single point]

Q: With `C/C(N)=C(/C#N)C(=O)COC(=O)c1ccccc1Oc1ccccc1` as the molecule, how does the “activity change, negative = inhibition” value read?
A: inactive: -7.3%

Q: With `CSc1ccc(CCNC(=O)Cn2c(C)c3cnn(-c4ccccc4)c(=O)c3c2C)cc1` as the molecule, how does the Potency read?
A: inconclusive: 7.08 µM [activator, full curve, poor fit]

Q: Which Potency does the source give for `CCN(CC)CCCN1C(=O)C(O)=C(C(=O)c2ccco2)C1c1ccc(C)o1` (configuration not stated) here?
A: inactive

Q: For `Cc1cc(C=C2C(=O)c3ccccc3C2=O)c(C)n1-c1ccc(C(=O)O)cc1`, which Potency is on record?
A: inconclusive: 2.51 µM [activator, partial curve, poor fit]

Q: With `O=C(Nc1ccc(F)cc1)Nc1cccnc1Cl` as the molecule, how does the Potency read?
A: inconclusive: 5.62 µM [activator, single point]

Q: For `COc1ccc(-n2nc(C(=O)NCC(=O)N3CCN(c4cccc(Cl)c4)CC3)c3ccccc3c2=O)c(OC)c1`, which Potency is on record?
A: inconclusive: 11.2 µM [inhibitor, partial curve]

Q: For `CCOC(=O)CN1C(=O)CN(c2ccc(C)c(C)c2)C1=O`, which Potency is on record?
A: inconclusive: 17.8 µM [inhibitor, partial curve, poor fit]

Q: Which Potency does the source give for `Cc1cc(C)cc(OCCNC(=O)CCc2ccccc2)c1` here?
A: inconclusive: 1.26 µM [inhibitor, single point]

Q: For `FC(F)c1nnc2ccc(Cl)nn12`, which Potency is on record?
A: inconclusive: 7.08 µM [inhibitor, full curve, poor fit]

Q: Which Potency does the source give for `COc1ccc(N2CCN(C(=O)CNS(=O)(=O)c3ccc(C)cc3)CC2)cc1` here?
A: inconclusive: 1.12 µM [activator, partial curve, poor fit]

Q: Which Potency does the source give for `COc1ccc(Nc2ncnc3c2cnn3Cc2ccc(C)cc2)cc1` here?
A: inconclusive: 11.2 µM [inhibitor, partial curve, poor fit]

Q: Which Potency does the source give for `O=C(NCC1CCOCC1)c1ccc2nc(Cc3cccc(Cl)c3)oc2c1` here?
A: inconclusive: 2.24 µM [activator, full curve]

Q: Which Potency does the source give for `COc1ccccc1C1C(C(=O)N2CCCCC2)=C(C)Nc2nc3ccccc3n21` (configuration not stated) here?
A: inconclusive: 31.6 µM [inhibitor, partial curve, poor fit]

Q: For `C[C@]12c3[nH]c4ccc(Cl)cc4c3CCN1C(=O)[C@@H](CC(=O)NCc1ccco1)C[C@@H]2C(=O)N1CCOCC1`, which “activity change, negative = inhibition” value is on record?
A: inactive: 0.00406%

Q: For `CNC(=O)c1cc(NC(=O)CCn2nc(-c3ccccc3)c3ccccc3c2=O)ccc1OC`, which Potency is on record?
A: inconclusive: 0.282 µM [inhibitor, full curve, poor fit]

Q: Which Potency does the source give for `O=C(CSc1nnc2sc3ccccc3n12)NCc1ccco1` here?
A: inconclusive: 7.3 µM [inhibitor, partial curve, poor fit]

Q: With `Cc1cccc(-c2cc3nc(C)cc(NCCCN(C)C)n3n2)c1` as the molecule, how does the Potency read?
A: inconclusive: 29.1 µM [inhibitor, single point]

Q: With `C=CCC(C(=O)OC)(C(=O)OC)c1ccccc1[N+](=O)[O-]` as the molecule, how does the “activity change, negative = inhibition” value read?
A: inactive: -8.47% [at 46.1 µM]

Q: Which Potency does the source give for `COc1ccc(N(CC(=O)N2CCc3ccccc3C2)S(=O)(=O)c2ccccc2)cc1` here?
A: inconclusive: 35.5 µM [inhibitor, single point]

Q: For `O=C(CN1C(=O)NC2(CCCc3ccccc32)C1=O)NCc1ccc(Cl)cc1Cl` (configuration not stated), which Potency is on record?
A: inconclusive: 14.1 µM [inhibitor, single point]

Q: With `COC(=O)C(C)NC(=O)C1CCCN1S(=O)(=O)c1cc(C)c(Cl)cc1C` (configuration not stated) as the molecule, how does the “activity change, negative = inhibition” value read?
A: inactive: 0.347%

Q: Which Potency does the source give for `COc1ccc(Cl)cc1N/C(N)=N/c1nc(CSc2ccc(C)cc2)cc(=O)[nH]1` here?
A: inconclusive: 2.31 µM [inhibitor, full curve, poor fit]

Q: For `COc1cc(C(O)CN)ccc1O` (configuration not stated), which Potency is on record?
A: inconclusive: 29.1 µM [activator, single point]

Q: Which “activity change, negative = inhibition” value does the source give for `CC(C)(C)NC(=O)CN1C(=O)NC(c2ccccc2)(c2ccccc2)C1=O` here?
A: inactive: 5.81% [at 46.1 µM]

Q: Which Potency does the source give for `Cc1sc2ncnc(SCC(=O)N3c4ccccc4Sc4ccc(Cl)cc43)c2c1C` here?
A: inconclusive: 1.58 µM [inhibitor, partial curve, poor fit]

Q: With `CCN(CC)Cc1c(C(=O)OC)nnn1-c1nonc1N` as the molecule, how does the Potency read?
A: inconclusive: 0.112 µM [inhibitor, full curve, poor fit]

Q: Which “activity change, negative = inhibition” value does the source give for `CCOC(=O)c1c(NC(=O)c2cc(-c3cccc(Cl)c3)on2)sc(C(C)=O)c1C` here?
A: inactive: -10.8% [at 46.1 µM]

Q: Which Potency does the source give for `N=C1SC(c2ccccc2)C(=O)N1c1ncc(Cc2ccccc2)s1` (configuration not stated) here?
A: inconclusive: 6.31 µM [activator, partial curve]

Q: Which Potency does the source give for `CN(C(=O)c1cc2c(=O)n3ccccc3nc2s1)C1CCCCC1` here?
A: inconclusive: 22.4 µM [inhibitor, single point]

Q: With `CS(=O)(=O)N1CCC(Oc2ccccc2C(=O)NC2CCCCCC2)CC1` as the molecule, how does the “activity change, negative = inhibition” value read?
A: inactive: 0.0185% [at 46.1 µM]

Q: For `Cc1ccc(NC(=O)CN2C(=O)c3cccnc3Sc3ccccc32)c(Br)c1`, which Potency is on record?
A: inconclusive: 31.6 µM [activator, single point]

Q: For `Cc1ccc(Nc2c3c(nc4nncn24)CCC3)c(C)c1`, which “activity change, negative = inhibition” value is on record?
A: inactive: -15.2% [at 46.1 µM]

Q: With `Cc1ccc2oc(C(=O)NCc3ncc(C)[nH]3)c(C)c2c1` as the molecule, how does the Potency read?
A: inconclusive: 5.01 µM [inhibitor, full curve, poor fit]

Q: With `Cc1cccc(C)c1NC(=O)N1CCC(N2CCCCC2)CC1` as the molecule, how does the “activity change, negative = inhibition” value read?
A: inactive: -4.16%

Q: With `C/C(Cn1nnc([N+](=O)[O-])n1)=N\NC(=O)c1ccc(Cl)c(Cl)c1` as the molecule, how does the Potency read?
A: inconclusive: 0.73 µM [inhibitor, full curve, poor fit]

Q: Which Potency does the source give for `COc1ccc(C2Nc3ccccc3C(=O)N2Cc2ccccc2)cc1CN1CCOCC1` (configuration not stated) here?
A: inconclusive: 35.5 µM [inhibitor, single point]

Q: Which Potency does the source give for `CN(C)CCNC(=O)/C(=C/c1ccc(-c2cccc([N+](=O)[O-])c2)o1)NC(=O)c1ccccc1` here?
A: inconclusive: 4.61 µM [inhibitor, partial curve, poor fit]

Q: For `Cc1nn(Cc2ccccc2)c(N)c1C#N`, which “activity change, negative = inhibition” value is on record?
A: inactive: 8.88%

Q: With `N#CCCn1cc(C(=O)NCc2ccccc2)c(-c2ccc3c(c2)OCCO3)n1` as the molecule, how does the Potency read?
A: inconclusive: 0.794 µM [inhibitor, single point]
